Measured values published in patent US8183258B2, “Heterocyclic compounds and their uses” (Amgen Inc., priority 2007, dated 2012).
Read-outs that look alike come from different tables or passages of the source. For at least one compound, name, drawing or mass did not settle the structure.

Key:
Class I PI 3-kinases = conditions: cited from earlier work
neutrophil migration = conditions: cited from earlier work
[1] = tested on: neutrophil superoxide release; conditions: cited from earlier work
U2OS EGFP-2XFYVE cells = assay: Class III PI(3)P Assay; type: cell-based; conditions: control, 10 uM
[2] = tested on: MDA MB468 Forkhead-DiversaGFP cells; assay: Forkhead Translocation Assay; type: cell-based; conditions: control, 10 uM
CHO-IR-AKT1-EGFP cells = assay: AKT Membrane Ruffling Assay; type: cell-based; conditions: control, 10 uM

| SMILES | IC50 (Class I PI 3-kinases; LY294002, read-out: IC50 values against each of these PI 3-kinases) [nM] | neutrophil migration (neutrophil migration) | superoxide release [1] | PI(3)P on endosomes (U2OS EGFP-2XFYVE cells) | Forkhead localisation [2] | IC50 (Class I PI 3-kinases; wortmannin, read-out: IC50 values against each of the various Class I PI 3-kinases) [nM] | AKT localisation (CHO-IR-AKT1-EGFP cells) |
| --- | --- | --- | --- | --- | --- | --- | --- |
| O=c1cc(N2CCOCC2)oc2c(-c3ccccc3)cccc12 [LY294002] | ~1000 | block | block |  |  |  |  |
| COC[C@H]1OC(=O)c2coc3c2[C@@]1(C)C1=C(C3=O)[C@@H]2CCC(=O)[C@@]2(C)C[C@H]1OC(C)=O [wortmannin] |  | block | block | depleted from endosomes | nuclear | 1 to 10 | cytoplasmic |
